Values from PubChem BioAssay AID1224828 (NIAID, 2016).
Assay: 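Regulators linking TLR4 signalling to p65 nuclear translocation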 (primary screen). Cells: mouse RAW264.7 G9 macrophage reporter cells (GFP-p65, Tnf promoter-mCherry). Reagent: siRNA pool against mouse genes, 100 nM. Timing: 2 days siRNA transfection, then 40 min LPS before fixation. Treatment: LPS (Salmonella minnesota R595) at 10 ng/ml. Read-out: 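Microscopy ratio of nuclear to perinuclear-ring GFP-p65 signal, scaled to the plate median; gene score is the average of two replicate robust z-scores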. Scale: p65 translocation robust z-score: higher = more nuclear NF-kappaB p65 after LPS than the plate median; nuclear/cytoplasmic p65 ratio: higher = more nuclear NF-kappaB p65. Active means: 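Called active when z exceeds 3.3 or falls under -1.56 (median of Tlr4 controls), giving activity score of at least 50; no calls for control wells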. Calls: active = hit (p65 shift raised or lowered); inactive = no clear change.
In all, the deposit lists about 17,000 reagents; this is a random part of them. Over the whole deposit, 762 (4.5%) were called active. 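Active calls include both raised and lowered p65 entry, mostly lowered; wells with fewer than 50 cells lack a z-score.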 Raw values are not corrected between plates. Some reagents were tested in more than one well and are listed for each.

{"gene knocked down": "Wbp1", "nuclear/cytoplasmic p65 ratio, rep 1": 1.46, "nuclear/cytoplasmic p65 ratio, rep 2": 1.19, "low cell count flag": "fewer than 50 cells per well; well left out of scoring", "activity call": "inactive"}
{"gene knocked down": "Abhd3", "p65 translocation robust z-score": -0.87, "nuclear/cytoplasmic p65 ratio, rep 1": 1.47, "nuclear/cytoplasmic p65 ratio, rep 2": 1.5, "low cell count flag": "enough cells to score", "activity call": "inactive"}
{"gene knocked down": "Mon1b", "p65 translocation robust z-score": 1.69, "nuclear/cytoplasmic p65 ratio, rep 1": 1.58, "nuclear/cytoplasmic p65 ratio, rep 2": 1.8, "low cell count flag": "enough cells to score", "activity call": "inactive"}
{"gene knocked down": "BC002118 (retired record)", "p65 translocation robust z-score": 0.29, "nuclear/cytoplasmic p65 ratio, rep 1": 1.51, "nuclear/cytoplasmic p65 ratio, rep 2": 2.02, "low cell count flag": "enough cells to score", "activity call": "inactive"}
{"gene knocked down": "Pdk3", "p65 translocation robust z-score": -1.39, "nuclear/cytoplasmic p65 ratio, rep 1": 1.46, "nuclear/cytoplasmic p65 ratio, rep 2": 1.21, "low cell count flag": "enough cells to score", "activity call": "inactive"}
{"gene knocked down": "Rasgrp1", "nuclear/cytoplasmic p65 ratio, rep 1": 1.64, "nuclear/cytoplasmic p65 ratio, rep 2": 1.35, "low cell count flag": "fewer than 50 cells per well; well left out of scoring", "activity call": "inactive"}
{"gene knocked down": "Wdr24", "p65 translocation robust z-score": -0.34, "nuclear/cytoplasmic p65 ratio, rep 1": 1.43, "nuclear/cytoplasmic p65 ratio, rep 2": 1.9, "low cell count flag": "enough cells to score", "activity call": "inactive"}
{"gene knocked down": "Tcf25", "p65 translocation robust z-score": -0.79, "nuclear/cytoplasmic p65 ratio, rep 1": 1.42, "nuclear/cytoplasmic p65 ratio, rep 2": 1.47, "low cell count flag": "enough cells to score", "activity call": "inactive"}
{"gene knocked down": "Kptn", "p65 translocation robust z-score": 0.9, "nuclear/cytoplasmic p65 ratio, rep 1": 1.61, "nuclear/cytoplasmic p65 ratio, rep 2": 1.49, "low cell count flag": "enough cells to score", "activity call": "inactive"}
{"gene knocked down": "Ftsj1", "p65 translocation robust z-score": 0.02, "nuclear/cytoplasmic p65 ratio, rep 1": 1.47, "nuclear/cytoplasmic p65 ratio, rep 2": 1.35, "low cell count flag": "enough cells to score", "activity call": "inactive"}
{"gene knocked down": "Atp4b", "p65 translocation robust z-score": -0.57, "nuclear/cytoplasmic p65 ratio, rep 1": 1.42, "nuclear/cytoplasmic p65 ratio, rep 2": 1.52, "low cell count flag": "enough cells to score", "activity call": "inactive"}
{"gene knocked down": "Krtap6-1", "p65 translocation robust z-score": 1.28, "nuclear/cytoplasmic p65 ratio, rep 1": 1.68, "nuclear/cytoplasmic p65 ratio, rep 2": 1.65, "low cell count flag": "enough cells to score", "activity call": "inactive"}
{"gene knocked down": "Timm23", "p65 translocation robust z-score": 0.71, "nuclear/cytoplasmic p65 ratio, rep 1": 1.48, "nuclear/cytoplasmic p65 ratio, rep 2": 1.25, "low cell count flag": "enough cells to score", "activity call": "inactive"}
{"gene knocked down": "Pik3cb", "p65 translocation robust z-score": 0.23, "nuclear/cytoplasmic p65 ratio, rep 1": 1.83, "nuclear/cytoplasmic p65 ratio, rep 2": 1.32, "low cell count flag": "enough cells to score", "activity call": "inactive"}
{"gene knocked down": "Pik3cb", "p65 translocation robust z-score": 0.25, "nuclear/cytoplasmic p65 ratio, rep 1": 1.56, "nuclear/cytoplasmic p65 ratio, rep 2": 1.61, "low cell count flag": "enough cells to score", "activity call": "inactive"}
{"gene knocked down": "Abca1", "p65 translocation robust z-score": -0.26, "nuclear/cytoplasmic p65 ratio, rep 1": 1.56, "nuclear/cytoplasmic p65 ratio, rep 2": 1.58, "low cell count flag": "enough cells to score", "activity call": "inactive"}
{"gene knocked down": "Astn1", "p65 translocation robust z-score": -1, "nuclear/cytoplasmic p65 ratio, rep 1": 1.38, "nuclear/cytoplasmic p65 ratio, rep 2": 1.45, "low cell count flag": "enough cells to score", "activity call": "inactive"}
{"gene knocked down": "Gad1", "p65 translocation robust z-score": -0.14, "nuclear/cytoplasmic p65 ratio, rep 1": 1.35, "nuclear/cytoplasmic p65 ratio, rep 2": 1.42, "low cell count flag": "enough cells to score", "activity call": "inactive"}
{"gene knocked down": "Mfsd1", "nuclear/cytoplasmic p65 ratio, rep 1": 1.37, "nuclear/cytoplasmic p65 ratio, rep 2": 1.57, "low cell count flag": "fewer than 50 cells per well; well left out of scoring", "activity call": "inactive"}
{"gene knocked down": "Zfp353-ps", "p65 translocation robust z-score": -0.16, "nuclear/cytoplasmic p65 ratio, rep 1": 1.43, "nuclear/cytoplasmic p65 ratio, rep 2": 1.2, "low cell count flag": "enough cells to score", "activity call": "inactive"}
{"gene knocked down": "Defb13", "p65 translocation robust z-score": 0.36, "nuclear/cytoplasmic p65 ratio, rep 1": 1.65, "nuclear/cytoplasmic p65 ratio, rep 2": 1.57, "low cell count flag": "enough cells to score", "activity call": "inactive"}

Reformatted: entries from further up.
Mon1b
- p65 translocation robust z-score: 1.69
- nuclear/cytoplasmic p65 ratio, rep 1: 1.58
- nuclear/cytoplasmic p65 ratio, rep 2: 1.8
- low cell count flag: enough cells to score
- activity call: inactive

BC002118 (retired record)
- p65 translocation robust z-score: 0.29
- nuclear/cytoplasmic p65 ratio, rep 1: 1.51
- nuclear/cytoplasmic p65 ratio, rep 2: 2.02
- low cell count flag: enough cells to score
- activity call: inactive
